Where two headings read alike, the source gives them in different places. At least one compound was matched to its structure with a doubt left.
What was measured:
[1] = target: T1, 5-HT Transporter (SERT) Sites in Mouse Brain (Mus musculus, UniProt Q60857); experiment: Ex vivo [3H] citalopram binding after oral dosing; parameters: species or system C57BL/6 mice; conditions: mice sacrificed 60 minutes after treatment, cortex
T1 construct: Whole brains were removed and cortex and striata dissected out; from tissue; host or cells: C57BL/6 mouse frontal cortex homogenate

The chains behind the UniProt entries cited, without tags or fusion partners.
UniProt Q60857, whole entry: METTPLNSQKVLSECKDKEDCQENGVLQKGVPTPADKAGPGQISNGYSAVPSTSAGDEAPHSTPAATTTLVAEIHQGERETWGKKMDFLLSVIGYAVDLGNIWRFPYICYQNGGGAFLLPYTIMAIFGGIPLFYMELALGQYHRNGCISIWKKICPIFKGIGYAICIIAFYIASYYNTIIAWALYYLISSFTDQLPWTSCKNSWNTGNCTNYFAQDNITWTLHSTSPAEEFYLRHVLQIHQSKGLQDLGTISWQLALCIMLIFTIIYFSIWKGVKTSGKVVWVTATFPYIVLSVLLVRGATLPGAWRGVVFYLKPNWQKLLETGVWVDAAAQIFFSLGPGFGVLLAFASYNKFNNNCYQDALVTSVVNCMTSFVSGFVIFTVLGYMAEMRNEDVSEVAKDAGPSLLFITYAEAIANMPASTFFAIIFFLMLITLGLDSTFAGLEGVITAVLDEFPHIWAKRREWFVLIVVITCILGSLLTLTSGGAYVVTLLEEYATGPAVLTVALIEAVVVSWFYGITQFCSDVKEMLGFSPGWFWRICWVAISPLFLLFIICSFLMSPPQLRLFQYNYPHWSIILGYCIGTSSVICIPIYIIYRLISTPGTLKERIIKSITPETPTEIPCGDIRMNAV
UniProt Q61327, whole entry: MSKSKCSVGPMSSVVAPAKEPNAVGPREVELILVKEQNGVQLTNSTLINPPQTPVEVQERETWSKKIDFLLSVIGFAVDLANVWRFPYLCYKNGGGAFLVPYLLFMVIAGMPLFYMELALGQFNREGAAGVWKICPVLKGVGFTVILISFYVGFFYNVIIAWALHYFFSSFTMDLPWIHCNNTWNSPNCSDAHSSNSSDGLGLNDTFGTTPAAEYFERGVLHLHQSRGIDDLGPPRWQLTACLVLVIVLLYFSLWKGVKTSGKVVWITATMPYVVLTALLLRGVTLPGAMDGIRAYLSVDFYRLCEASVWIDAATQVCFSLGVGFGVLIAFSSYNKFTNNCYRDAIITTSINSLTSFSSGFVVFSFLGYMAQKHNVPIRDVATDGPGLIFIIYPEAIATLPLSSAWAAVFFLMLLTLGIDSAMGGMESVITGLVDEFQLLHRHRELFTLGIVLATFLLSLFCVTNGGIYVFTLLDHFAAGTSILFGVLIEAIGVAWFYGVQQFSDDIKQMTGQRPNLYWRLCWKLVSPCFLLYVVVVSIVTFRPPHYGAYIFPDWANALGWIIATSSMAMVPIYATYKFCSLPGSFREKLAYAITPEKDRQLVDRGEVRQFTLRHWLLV
UniProt O55192, whole entry: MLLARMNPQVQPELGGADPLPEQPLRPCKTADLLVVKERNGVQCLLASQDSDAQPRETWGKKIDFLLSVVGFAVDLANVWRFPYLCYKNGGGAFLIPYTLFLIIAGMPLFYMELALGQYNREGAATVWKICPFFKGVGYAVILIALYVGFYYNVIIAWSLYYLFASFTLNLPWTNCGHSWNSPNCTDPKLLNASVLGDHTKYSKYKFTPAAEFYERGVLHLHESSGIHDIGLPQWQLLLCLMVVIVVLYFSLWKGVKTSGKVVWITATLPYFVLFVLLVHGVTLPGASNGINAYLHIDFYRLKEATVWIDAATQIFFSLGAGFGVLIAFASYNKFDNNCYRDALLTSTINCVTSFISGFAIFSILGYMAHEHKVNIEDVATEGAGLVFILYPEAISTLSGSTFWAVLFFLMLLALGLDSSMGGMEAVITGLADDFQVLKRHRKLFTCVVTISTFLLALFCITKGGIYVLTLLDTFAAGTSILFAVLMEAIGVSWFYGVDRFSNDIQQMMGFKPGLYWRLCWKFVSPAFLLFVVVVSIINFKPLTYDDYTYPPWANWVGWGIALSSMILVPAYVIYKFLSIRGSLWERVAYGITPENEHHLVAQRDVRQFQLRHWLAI

[2] = target: T2, DA Transporter (DAT) Sites in Mouse Brain (Mus musculus, UniProt Q61327); experiment: Ex vivo [3H] WIN 35428 binding after oral dosing; parameters: species or system C57BL/6 mice; conditions: mice sacrificed 60 minutes after treatment, striatum
T2 construct: Striatum was used to determine occupancy of DA transporter sites; from tissue; host or cells: C57BL/6 mouse striatum homogenate

[3] = target: Norepinephrine Transporter (NET) Sites in Mouse Brain (Mus musculus, UniProt O55192); conditions: PO, mice sacrificed 60 minutes after treatment, cortex

| SMILES | Mean Specific Binding (dpm) ± S.E.M., SERT ([1]; 1 mg/kg) | Mean Specific Binding (dpm) ± S.E.M., SERT ([1]; 3 mg/kg) | Mean Specific Binding (dpm) ± S.E.M., SERT ([1]; 10 mg/kg) | Mean Specific Binding (dpm) ± S.E.M., SERT ([1]; 30 mg/kg) | Mean Specific Binding (dpm) ± S.E.M., DAT ([2]; 1 mg/kg) | Mean Specific Binding (dpm) ± S.E.M., DAT ([2]; 3 mg/kg) | Mean Specific Binding (dpm) ± S.E.M., DAT ([2]; 10 mg/kg) | Mean Specific Binding (dpm) ± S.E.M., DAT ([2]; 30 mg/kg) | Mean Specific Binding (dpm) ± S.E.M., NET ([3]; 1 mg/kg) | Mean Specific Binding (dpm) ± S.E.M., NET ([3]; 3 mg/kg) | Mean Specific Binding (dpm) ± S.E.M., NET ([3]; 10 mg/kg) | Mean Specific Binding (dpm) ± S.E.M., NET ([3]; 30 mg/kg) |
| --- | --- | --- | --- | --- | --- | --- | --- | --- | --- | --- | --- | --- |
| CN(C)CC1(c2ccc3ccccc3c2)CCCCC1O (single isomer, unassigned) [164 E1, trans-2-((dimethylamino)methyl)-2-(naphthalen-2-yl)cyclohexanol] | 2796 ± 133 dpm | 2273 ± 74 dpm | 783 ± 61 dpm | 271 ± 50 dpm | 23574 ± 1313 dpm | 18002 ± 1516 dpm | 17727 ± 2871 dpm | 15630 ± 1085 dpm | 1122 ± 58 dpm | 1046 ± 23 dpm | 903 ± 48 dpm | 610 ± 59 dpm |
| CN(C)CC1(c2ccc(Cl)c(Cl)c2)CCCCC1O (single isomer, unassigned) [153 E2, trans-2-(3,4-dichlorophenyl)-2-((dimethylamino)methyl)cyclohexanol] | 3271 ± 199 dpm | 2968 ± 100 dpm | 2327 ± 150 dpm | 1359 ± 89 dpm | 22774 ± 916 dpm | 24159 ± 1313 dpm |  | 16194 ± 1293 dpm | 1804 ± 79 dpm | 1726 ± 44 dpm | 1734 ± 62 dpm | 1140 ± 53 dpm |
